# Experimental data taken from PubChem BioAssay AID1259354 (Paczesny and Yang Labs, IUPUI and University of Michigan, 2018).
# Amino acid sequences for entries named in this document (tags omitted). A change or cut given only in a name is not applied to a line headed by its entry.
# UniProt Q01638: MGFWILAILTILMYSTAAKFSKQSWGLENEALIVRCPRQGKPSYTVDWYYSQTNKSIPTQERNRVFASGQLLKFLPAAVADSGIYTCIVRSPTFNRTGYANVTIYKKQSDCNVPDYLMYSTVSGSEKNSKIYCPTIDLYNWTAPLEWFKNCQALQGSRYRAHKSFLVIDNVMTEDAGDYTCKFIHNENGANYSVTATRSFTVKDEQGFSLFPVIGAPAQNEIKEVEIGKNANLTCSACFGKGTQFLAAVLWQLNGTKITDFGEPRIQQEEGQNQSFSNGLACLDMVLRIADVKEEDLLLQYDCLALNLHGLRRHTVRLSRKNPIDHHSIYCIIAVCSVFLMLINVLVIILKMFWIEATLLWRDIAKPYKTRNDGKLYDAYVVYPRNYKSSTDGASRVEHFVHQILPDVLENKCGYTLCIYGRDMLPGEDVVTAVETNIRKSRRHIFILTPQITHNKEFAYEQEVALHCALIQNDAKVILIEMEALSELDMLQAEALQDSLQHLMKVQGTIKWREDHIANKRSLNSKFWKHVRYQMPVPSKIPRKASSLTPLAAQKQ
# Hit rate of the full screen: of about 78,000 compounds, about 1,800 (2.3%) were called active. The shares of active, inactive and inconclusive entries below differ from those in the screen. Cut-off read from the data, not from the text of the source: active = inhibition above about 30%; inconclusive = mostly about 10% to 28%; inactive = weaker than that.
# Target: Interleukin-1 receptor-like 1 (Homo sapiens) (UniProt Q01638)
# Assay: blocks human ST2 binding to IL-33, primary screen, biochemical, AlphaLISA (AID 1259354)
# Conditions: AlphaLISA ST2-Fc/biotin-IL-33 interaction, 1 h; at 17 µM, hits give high values
row,SMILES,inhibition
1,Cc1cccc(=O)n1CCC(=O)N1CC[C@@](C)(O)[C@@H](Cc2ccccc2)C1,inactive
2,c1coc(-c2nnc([C@H]3CCN(Cc4ccc5c(c4)OCO5)C3)o2)c1,inconclusive: 17%
3,COc1ccc(NC(=O)c2oc3ccccc3c2NC(=O)C2CCCCC2)cc1,inactive
4,Cc1noc(C)c1CN1CC[C@@H](c2ccc3c(c2)OCO3)[C@H](O)C1,inactive
5,O=[N+]([O-])c1ccc(CN2CCN(c3cccc(Cl)c3)CC2)s1,inconclusive: 27%
6,O=C1CC2(CCN(C(=O)CCSCc3ccc(F)cc3)CC2)CN1,inconclusive: 23%
7,O=C(CSc1ncn[nH]1)N1c2ccccc2CCc2ccccc21,inconclusive: 13%
8,CC(C)=CC(=O)NCC1(CN2CCN(C)CC2)CC1,inconclusive: 17%
9,COc1ccccc1-n1cc(C(=O)N2CCN3C(=O)CNC(=O)C3C2)cn1 (stereo not given),inactive
10,O=C(N1CCOCC1)C12C[C@@H]3C[C@@H](CC(Cl)(C3)C1)C2,inactive
11,Cc1cc(-c2ccccc2Cl)nc(N)n1,inactive
12,C=CCNC(=O)N[C@H]1C[C@H]2C(=O)Nc3cc(Cl)ccc3C(=O)N2C1,inconclusive: 11%
13,CCn1cc(SCC(=O)NCc2ccco2)c2ccccc21,inactive
14,O=C(Nc1c(-c2ccc(F)cc2)nc2ccccn12)c1ccccc1,inactive
15,CCOc1cc(C(=O)Nc2c(-c3cccs3)nc3ccccn23)cc(OCC)c1OCC,inactive
16,O=C(c1csc(S(=O)(=O)N2CCOCC2)c1)N1CCCC1,inconclusive: 17%
17,COc1ccccc1S(=O)Cc1ccc(C(=O)NC2CCCC2)o1 (stereo not given),inconclusive: 15%
18,Cc1nonc1OCCNC(=O)CCN1CCCCCCC1,inactive
19,C[C@H](c1ccccc1)N1C(=O)[C@@H]2CN(C(=O)CC(C)(C)CC(=O)O)CCN2C1=O,inconclusive: 25%
20,O=C(Nc1sc2c(c1C(=O)NCc1ccco1)CCCC2)c1ccccc1[N+](=O)[O-],active: 30%
21,O=C1CCc2cc(S(=O)(=O)N3CCN(S(=O)(=O)c4ccc(F)cc4)CC3)cc3c2N1CC3,inconclusive: 21%
22,COc1ccccc1N1C(=O)C2C(C(C)=O)=NN(c3ccc(C)cc3)C2C1=O (stereo not given),inactive
23,CN(C)c1ccc2cccc(O)c2n1,inconclusive: 22%
24,Cc1ccc(Nc2cc(C)nc(N3CCN(S(=O)(=O)c4ccccc4Cl)CC3)n2)cc1,inconclusive: 23%

# Rewritten with tabs: 18 of the compounds above.
row	SMILES	inhibition
1	Cc1cccc(=O)n1CCC(=O)N1CC[C@@](C)(O)[C@@H](Cc2ccccc2)C1	inactive
2	c1coc(-c2nnc([C@H]3CCN(Cc4ccc5c(c4)OCO5)C3)o2)c1	inconclusive: 17%
3	COc1ccc(NC(=O)c2oc3ccccc3c2NC(=O)C2CCCCC2)cc1	inactive
5	O=[N+]([O-])c1ccc(CN2CCN(c3cccc(Cl)c3)CC2)s1	inconclusive: 27%
6	O=C1CC2(CCN(C(=O)CCSCc3ccc(F)cc3)CC2)CN1	inconclusive: 23%
10	O=C(N1CCOCC1)C12C[C@@H]3C[C@@H](CC(Cl)(C3)C1)C2	inactive
11	Cc1cc(-c2ccccc2Cl)nc(N)n1	inactive
12	C=CCNC(=O)N[C@H]1C[C@H]2C(=O)Nc3cc(Cl)ccc3C(=O)N2C1	inconclusive: 11%
14	O=C(Nc1c(-c2ccc(F)cc2)nc2ccccn12)c1ccccc1	inactive
15	CCOc1cc(C(=O)Nc2c(-c3cccs3)nc3ccccn23)cc(OCC)c1OCC	inactive
16	O=C(c1csc(S(=O)(=O)N2CCOCC2)c1)N1CCCC1	inconclusive: 17%
17	COc1ccccc1S(=O)Cc1ccc(C(=O)NC2CCCC2)o1 (stereo not given)	inconclusive: 15%
18	Cc1nonc1OCCNC(=O)CCN1CCCCCCC1	inactive
20	O=C(Nc1sc2c(c1C(=O)NCc1ccco1)CCCC2)c1ccccc1[N+](=O)[O-]	active: 30%
21	O=C1CCc2cc(S(=O)(=O)N3CCN(S(=O)(=O)c4ccc(F)cc4)CC3)cc3c2N1CC3	inconclusive: 21%
22	COc1ccccc1N1C(=O)C2C(C(C)=O)=NN(c3ccc(C)cc3)C2C1=O (stereo not given)	inactive
23	CN(C)c1ccc2cccc(O)c2n1	inconclusive: 22%
24	Cc1ccc(Nc2cc(C)nc(N3CCN(S(=O)(=O)c4ccccc4Cl)CC3)n2)cc1	inconclusive: 23%

# (listing goes on)

row,SMILES,inhibition
1,CCOc1ccc(C2CC(c3ccc(OCC)cc3)n3nc(N)nc3N2)cc1 (stereo not given),inconclusive: 13%
2,O=C(c1ccco1)N(CCN(Cc1ccccc1)C(=O)c1ccco1)Cc1ccccc1,inconclusive: 13%
3,CCOC(=O)C1C(=O)C=C(c2cccs2)CC1c1ccccc1OC (stereo not given),inconclusive: 13%
4,COc1cc2c(cc1NC(=O)c1ccc(S(=O)(=O)N(C)C)cc1)oc1ccccc12,inconclusive: 18%
5,CCOC(=O)C1C(=O)C=C(c2cccs2)CC1c1ccc(CC)cc1 (stereo not given),inconclusive: 25%
6,O=C1NC(=O)/C(=C\c2ccc(-c3ccc(F)c(Cl)c3)o2)S1,active: 34%
7,N#C/C(=C\c1ccc(-c2cccc([N+](=O)[O-])c2)o1)C(=O)Nc1cccc(C(F)(F)F)c1,active: 30%
8,CCC1CN(Cc2ccc3ccn(C)c3c2)CCN1C(C)C (stereo not given),inconclusive: 17%
9,COc1ccccc1C1=NC(=O)CS1,inactive
10,C/C(=C/CO)CC[C@@H]1[C@@](C)(O)CCC2C(C)(C)CCC[C@]21C (stereo not given in full),inconclusive: 22%
11,Cc1ccc(N2CCCS2(=O)=O)cc1NC(=O)COc1ccc(Cl)cc1,inconclusive: 11%
12,Cc1cc(NC(=O)c2cccnc2)ccc1-c1cc2ccccc2oc1=O,inconclusive: 10%
13,COc1ccc(C(=O)Nc2c3c(nn2-c2ccc(OC)cc2)CSC3)cc1,inconclusive: 12%
14,CCC(C)NC(=O)CSc1nc2c(sc3ccccc32)c(=O)n1Cc1cccnc1 (stereo not given),inconclusive: 14%
15,CSc1ccccc1CN1CCCC(O)(CO)CC1 (stereo not given),inconclusive: 10%
16,CC(=O)Nc1ccc(N=Cc2cc3c(cc2[N+](=O)[O-])OCO3)cc1,inconclusive: 10%
17,CSc1ccc(-c2nc(CSCC(=O)N(C)Cc3ccccc3)c(C)o2)cc1,inconclusive: 11%
18,Cc1ccc(N2C(=O)C3N=NN(CC(=O)Nc4ccc(C)cc4C)C3C2=O)cc1 (stereo not given),inactive
19,Cn1c(=O)c2c(ncn2C)n(C)c1=O,inconclusive: 18%
20,CCC(=O)N[C@@H]1c2ccccc2C2(CCN(C(=O)c3ccc(C#CC(C)(C)O)cc3)CC2)[C@H]1OC,inactive
21,CC(=O)Nc1ccc(S(=O)(=O)Nc2ccc(I)cc2)cc1,inactive
22,CCc1c(C)nc2ncnn2c1Sc1ccccc1NC(=O)Nc1ccc(C)cc1,inconclusive: 11%
23,O=C1CC(C(=O)NCCN2Cc3ccccc3OC(c3ccsc3)C2)c2ccccc21 (stereo not given),inconclusive: 19%
24,COc1ccc(CC(=O)NCC2CCCN(Cc3cc4ccccc4o3)C2)cc1 (stereo not given),inactive

row,SMILES,inhibition
1,CCN1CCN(C(=O)c2cn(C)c(=O)c3c2c2ccccc2n3C)CC1,inactive
2,COc1ccc(CCNC(=O)COc2ccc(C(C)C)cc2)cc1OC,inconclusive: 13%
3,COc1cc(NC(=O)COc2ccc(Br)cc2Br)c(OC)cc1Cl,inconclusive: 17%
4,O=C(O)c1ccc(-n2c(/C=C/c3ccc([N+](=O)[O-])cc3)nc3ccccc3c2=O)cc1,inconclusive: 12%
5,CC(C)c1ccc(CN2CCCN(C)CC2)cc1,inconclusive: 11%
6,O=C1C2ON(c3ccccc3)C(c3ccccc3)C2C(=O)N1Cc1ccccc1 (stereo not given),inactive
7,O=C(c1cn[nH]c1-c1ccccc1F)N1CCC2(CCCO2)CC1,inconclusive: 10%
8,CN(Cc1ccccc1)Cc1cn([C@H]2CO[C@H]3[C@@H]2OC[C@@H]3NCCCc2ccccc2)nn1,inactive
9,[N-]=[N+]=Nc1ccc(C(=O)CSC[C@H](NC(=O)CC[C@H](N)C(=O)O)C(=O)NCC(=O)O)cc1,inconclusive: 27%
10,COc1ccc(-c2cc(C(=O)O)cc(S(=O)(=O)N3CCCCCC3)c2)cc1OC,inconclusive: 14%
11,CCOc1ccc(-n2c(SCc3ccc(C)cc3)nc3c(c2=O)SCC3)cc1,inactive
12,CCN(CC)CCCNc1c2c(c(C#N)c3nc4ccccc4n13)CCC2,active: 42%
13,Fc1cnccc1N1CCN(Cc2ccccc2OC(F)F)CC1,inactive
14,COc1ccc(Cl)cc1N1C(=O)C2C3CCC(C3)C2C1=O (stereo not given),inactive
15,COc1ccc(Br)cc1C1C(C#N)=C(N)Oc2c1c(C)nn2-c1ccccc1 (stereo not given),inactive
16,Cn1c2nc3ccc(Br)cc3c-2nc2ccccc21,active: 37%
17,COc1ccc2cc3cc(C(=O)N(C)Cc4ccccc4)sc3nc2c1,inconclusive: 29%
18,Cc1nc(C(=O)Nc2ccc3c(c2)OCO3)cc2c1[nH]c1ccccc12,active: 30%
19,COC(=O)c1cccc(NC(=S)N[C@H]2CO[C@H]3[C@@H]2OC[C@@H]3n2nnnc2-c2ccccc2)c1,inconclusive: 11%
20,CC(=O)N1CCc2c(nc(C)nc2N2CCN(CCc3ccncc3)CC2)C1,inactive
21,COc1ccc(CNC(=O)C2CCN(Cc3ccccc3F)CC2)cc1,inactive
22,COCCc1nc2ccc(C(=O)NCc3cn4nc(C)sc4n3)cc2o1,inconclusive: 14%
23,COc1ccccc1N1CCN(Cc2ccc([N+](=O)[O-])o2)CC1,inconclusive: 18%
24,CSc1ccc(-c2nc(CSCC(=O)N3CCCC3)c(C)o2)cc1,inconclusive: 26%

row,SMILES,inhibition
1,O=C1NC(=O)/C(=C\c2ccc(Cl)cc2Cl)S1,active: 31%
2,CCN(CCc1nc2ccc(OC)cc2[nH]1)C(=O)c1cc(C)nc(C)n1,inconclusive: 11%
3,O=S(=O)(NC[C@H]1O[C@@H](CO)[C@@H](O)[C@H]1N1CCN(c2cccc(C(F)(F)F)c2)CC1)c1ccccc1,inconclusive: 18%
4,CCSc1nnc2c(n1)OC(c1cccnc1)Nc1ccc(Br)cc1-2 (stereo not given),inactive
5,CCCCOC(=O)Nc1ccc(OC)cc1[N+](=O)[O-],active: 47%
6,Cc1ccc(CNC(=O)C2CSC(c3cccs3)=N2)cc1 (stereo not given),inconclusive: 12%
7,CNC(=O)C1CCN(Cc2cccc(C(=O)Nc3cccc(CO)c3C)c2)C1 (stereo not given),inconclusive: 11%
8,Cc1nc2nc(SCC(=O)NC3CCCC3)nn2c(C)c1Cc1ccccc1Cl,inconclusive: 14%
9,CCn1ncc(C(=O)N(Cc2ccsc2)C2CC2)c1C,inconclusive: 11%
10,COc1ccccc1C(=O)Nc1ccc2oc(-c3ccncc3)nc2c1,inconclusive: 16%
11,CCN(CC)C(=O)Cn1cnc2sc(C(=O)Nc3ccc(C(C)C)cc3)c(C)c2c1=O,inconclusive: 19%
12,Cc1nc2c(NCC3(COc4ccccc4)CC3)ncnc2o1,inactive
13,CCOC(=O)C1(NC(=O)c2cn3ccsc3n2)CCC1,inconclusive: 19%
14,O=C(Cn1nnnc1CN1CCCC1)N1CCc2ccccc2C1,inconclusive: 10%
15,Cc1nn(C(=O)c2ccccc2F)cc1[N+](=O)[O-],inconclusive: 10%
16,NS(=O)(=O)c1ccc(N=Cc2ccccc2F)cc1,inactive
17,O=C(NCC1CCCO1)c1ccc2c(c1)N(Cc1ccc(F)cc1Cl)C(=O)CS2 (stereo not given),inconclusive: 13%
18,CCCCN(CC)c1ncnc2c1sc1nc(N3CCOCC3)c3c(c12)CC(C)(C)OC3,inconclusive: 12%
19,Cc1occc1C(=O)Nc1nc(-c2ccccc2)c(C)s1,inconclusive: 10%
20,Clc1ccc(-c2nc3c(c(NCCn4cccn4)n2)CNC3)cc1,inconclusive: 18%
21,C=CCc1cccc(OC)c1OCCCN1CCN(C)CC1,inconclusive: 16%
22,Nc1n[nH]c(-c2ccc(Cl)cc2)n1,inactive
23,CC12CC(c3cc(Br)ccc3O1)C(C(=O)c1ccccc1)C(=O)N2 (stereo not given),inconclusive: 13%
